Assay results reported in patent US9598419B1, “Imidazotriazine and imidazodiazine compounds” (Universite de Montreal, priority 2014, dated 2017).
Some results were stated once for a whole list of compounds, not compound by compound.

Target: T1, PAR4 (Homo sapiens, UniProt Q96RI0)
T1 sequence (Q96RI0 18-385): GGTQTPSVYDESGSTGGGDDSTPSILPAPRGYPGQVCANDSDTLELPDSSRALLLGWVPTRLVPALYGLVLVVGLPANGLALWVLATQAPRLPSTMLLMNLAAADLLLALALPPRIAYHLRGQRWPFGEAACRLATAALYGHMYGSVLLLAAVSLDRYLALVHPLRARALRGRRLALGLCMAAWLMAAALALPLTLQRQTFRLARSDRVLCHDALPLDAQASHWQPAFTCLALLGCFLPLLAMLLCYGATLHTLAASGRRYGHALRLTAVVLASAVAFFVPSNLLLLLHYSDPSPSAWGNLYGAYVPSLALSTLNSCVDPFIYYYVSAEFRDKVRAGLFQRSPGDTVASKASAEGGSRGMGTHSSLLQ
Experiment: FLIPR calcium mobilization assay in PAR4-expressing HEK293 cells
Type: cell-based
Parameters: expressed in transfected cells; host or cells: HEK293 PAR4 Clone 1.2A
Details: inhibition of calcium mobilization induced by H-Ala-Phe(4-F)-Pro-Gly-Trp-Leu-Val-Lys-Asn-Gly-NH2; read-out: EC50 in the PAR4 FLIPR assay (PAR4 antagonist activity)

SMILES: COc1cc(OCc2csc(N3CCC(C)C(O)C3)n2)c2cc(-c3cn4nc(C)cnc4n3)oc2c1 (mixture of isomers) [Example 14, 1-(4-(((6-Methoxy-2-(2-methylimidazo[1,2-b][1,2,4]triazin-6-yl)benzofuran-4-yl)oxy)methyl)thiazol-2-yl)-4-methylpiperidin-3-ol]
- EC50: < 5 µM

SMILES: COc1cc(OCc2ccnc(N3CCC(C)C(O)C3)n2)c2cc(-c3cn4nc(C)cnc4n3)oc2c1 (mixture of isomers) [Example 15, 1-(4-(((6-Methoxy-2-(2-methylimidazo[1,2-b][1,2,4]triazin-6-yl)benzofuran-4-yl)oxy)methyl)pyrimidin-2-yl)-4-methylpiperidin-3-ol]
- EC50: < 5 µM

SMILES: COc1cc(OCc2ccccc2)c2cc(-c3cn4nccnc4n3)oc2c1 [Example 1, 6-(4-(Benzyloxy)-6-methoxybenzofuran-2-yl)imidazo[1,2-b][1,2,4]triazine]
- EC50: < 5 µM

SMILES: COc1cc(OCc2csc(-c3ccccc3)n2)c2cc(-c3cn4nccnc4n3)oc2c1 [Example 2, 4-(((2-(Imidazo[1,2-b][1,2,4]triazin-6-yl)-6-methoxybenzofuran-4-yl)oxy)methyl)-2-phenylthiazole]
- EC50: < 5 µM

SMILES: COc1cc(OCc2csc(-c3ccc(C(=O)N(C)C)cc3)n2)c2cc(-c3cn4nccnc4n3)oc2c1 [Example 3, 4-(4-(((2-(Imidazo[1,2-b][1,2,4]triazin-6-yl)-6-methoxybenzofuran-4-yl)oxy)methyl)thiazol-2-yl)-N,N-dimethylbenzamide]
- EC50: < 5 µM

SMILES: COc1cc(OCc2ccccc2)c2cc(-c3cn4nc(C)cnc4n3)oc2c1 [Example 4, 6-(4-(Benzyloxy)-6-methoxybenzofuran-2-yl)-2-methylimidazo[1,2-b][1,2,4]triazine]
- EC50: < 5 µM

SMILES: COc1cc(OCc2csc(-c3ccc(C(=O)N(C)C)cc3)n2)c2cc(-c3cn4nc(C)cnc4n3)oc2c1 [Example 5, 4-(4-(((6-Methoxy-2-(2-methylimidazo[1,2-b][1,2,4]triazin-6-yl)benzofuran-4-yl)oxy)methyl)thiazol-2-yl)-N,N-dimethylbenzamide]
- EC50: < 5 µM

SMILES: COc1cc(OCc2csc(-c3ccccc3)n2)c2cc(-c3cn4nc(C)cnc4n3)oc2c1 [Example 6, 4-(((6-Methoxy-2-(2-methylimidazo[1,2-b][1,2,4]triazin-6-yl)benzofuran-4-yl)oxy)methyl)-2-phenylthiazole]
- EC50: < 5 µM

SMILES: COc1cc(OCc2nc(N3CCOCC3)sc2C)c2cc(-c3cn4nc(C)cnc4n3)oc2c1 [Example 7, 4-(4-(((6-Methoxy-2-(2-methylimidazo[1,2-b][1,2,4]triazin-6-yl)benzofuran-4-yl)oxy)methyl)-5-methylthiazol-2-yl)morpholine]
- EC50: < 5 µM

SMILES: COc1cc(OCc2ccccc2)c2cc(-c3cn4nc(C)c(C)nc4n3)oc2c1 [Example 10, 6-(4-(Benzyloxy)-6-methoxybenzofuran-2-yl)-2,3-dimethylimidazo[1,2-b][1,2,4]triazine]
- EC50: < 5 µM

SMILES: COc1cc(OCc2csc(-c3ccccc3)n2)c2cc(-c3cn4nc(C)c(C)nc4n3)oc2c1 [Example 11, 4-(((2-(2,3 -Dimethylimidazo[1,2-b][1,2,4]triazin-6-yl)-6-methoxybenzofuran-4-yl)oxy)methyl)-2-phenylthiazole]
- EC50: < 5 µM

SMILES: COc1cc(OCc2csc(-c3ccc(C(=O)N(C)C)cc3)n2)c2cc(-c3cn4nc(C)c(C)nc4n3)oc2c1 [Example 12, 4-(4-(((2-(2,3-Dimethylimidazo[1,2-b][1,2,4]triazin-6-yl)-6-methoxybenzofuran-4-yl)oxy)methyl)thiazol-2-yl)-N,N-dimethylbenzamide]
- EC50: < 5 µM

SMILES: COc1cc(OCc2nc(N3CCOCC3)sc2C)c2cc(-c3cn4nc(C)c(C)nc4n3)oc2c1 [Example 13, 4-(4-(((2-(2,3-Dimethylimidazo[1,2-b][1,2,4]triazin-6-yl)-6-methoxybenzofuran-4-yl)oxy)methyl)-5-methylthiazol-2-yl)morpholine]
- EC50: < 5 µM

SMILES: COc1cc(OCc2csc(-c3ccc(C(=O)OC(C)(C)C)cc3)n2)c2cc(-c3cn4nc(C)cnc4n3)oc2c1 [Example 16, tert-Butyl 4-(4-(((6-methoxy-2-(2-methylimidazo[1,2-b][1,2,4]triazin-6-yl)benzofuran-4-yl)oxy)methyl)thiazol-2-yl)benzoate]
- EC50: < 5 µM

SMILES: COc1cc(OCc2csc(-c3ccc(C(=O)O)cc3)n2)c2cc(-c3cn4nc(C)cnc4n3)oc2c1 [Example 17, 4-(4-(((6-Methoxy-2-(2-methylimidazo[1,2-b][1,2,4]triazin-6-yl)benzofuran-4-yl)oxy)methyl)thiazol-2-yl)benzoic acid]
- EC50: < 5 µM

SMILES: COc1cc(OCc2csc(-c3ccc(C(=O)N4CCC[C@H](O)C4)cc3)n2)c2cc(-c3cn4nc(C)cnc4n3)oc2c1 [Example 18, (S)-(3-Hydroxypiperidin-1-yl)(4-(4-(((6-methoxy-2-(2-methylimidazo[1,2-b][1,2,4]triazin-6-yl)benzofuran-4-yl)oxy)methyl)thiazol-2-yl)phenyl)methanone]
- EC50: < 5 µM

SMILES: COc1cc(OCc2csc(-c3ccc(C(=O)N4CCC[C@@H](O)C4)cc3)n2)c2cc(-c3cn4nc(C)cnc4n3)oc2c1 [Example 19, (R)-(3-Hydroxypiperidin-1-yl)(4-(4-(((6-methoxy-2-(2-methylimidazo[1,2-b][1,2,4]triazin-6-yl)benzofuran-4-yl)oxy)methyl)thiazol-2-yl)phenyl)methanone]
- EC50: < 5 µM

SMILES: COc1cc(OCc2csc(-c3ccc(C(=O)N(C)[C@H]4CCOC4)cc3)n2)c2cc(-c3cn4nc(C)cnc4n3)oc2c1 [Example 20, (S)-4-(4-(((6-Methoxy-2-(2-methylimidazo[1,2-b][1,2,4]triazin-6-yl)benzofuran-4-yl)oxy)methyl)thiazol-2-yl)-N-methyl-N-(tetrahydrofuran-3-yl)benzamide]
- EC50: < 5 µM

SMILES: COc1cc(OCc2csc(-c3ccc(C(=O)N(C)[C@@H]4CCOC4)cc3)n2)c2cc(-c3cn4nc(C)cnc4n3)oc2c1 [Example 21, (R)-4-(4-(((6-Methoxy-2-(2-methylimidazo[1,2-b][1,2,4]triazin-6-yl)benzofuran-4-yl)oxy)methyl)thiazol-2-yl)-N-methyl-N-(tetrahydrofuran-3-yl)benzamide]
- EC50: < 5 µM

SMILES: COc1cc(OCc2ccccc2)c2cc(-c3cn4cc(C)cnc4n3)oc2c1 [Example 22, 2-(4-(Benzyloxy)-6-methoxybenzofuran-2-yl)-6-methylimidazo[1,2-a]pyrimidine]
- EC50: < 5 µM

SMILES: COc1cc(OCc2csc(-c3ccccc3)n2)c2cc(-c3cn4cc(C)cnc4n3)oc2c1 [Example 23, 4-(((6-Methoxy-2-(6-methylimidazo[1,2-a]pyrimidin-2-yl)benzofuran-4-yl)oxy)methyl)-2-phenylthiazole]
- EC50: < 5 µM

SMILES: COc1cc(OCc2csc(-c3ccc(C(=O)N(C)C)cc3)n2)c2cc(-c3cn4cc(C)cnc4n3)oc2c1 [Example 24, 4-(4-(((6-Methoxy-2-(6-methylimidazo[1,2-a]pyrimidin-2-yl)benzofuran-4-yl)oxy)methyl)thiazol-2-yl)-N,N-dimethylbenzamide]
- EC50: < 5 µM

SMILES: COc1cc(OCc2nc(N3CCOCC3)sc2C)c2cc(-c3cn4cc(C)cnc4n3)oc2c1 [Example 25, 4-(4-(((6-Methoxy-2-(6-methylimidazo[1,2-a]pyrimidin-2-yl)benzofuran-4-yl)oxy)methyl)-5-methylthiazol-2-yl)morpholine]
- EC50: < 5 µM

SMILES: COc1cc(OCc2ccccc2)c2cc(-c3cn4nc(C)ncc4n3)oc2c1 [Example 26, 6-(4-(Benzyloxy)-6-methoxybenzofuran-2-yl)-2-methylimidazo[2,1-f][1,2,4]triazine]
- EC50: < 5 µM
